System: dogs
Test: Clinical trial of analgesia and comfort in dogs during and after spay surgery (laparotomy ovariohysterectomy), isoflurane anesthesia (Example 2)
Settings: maropitant 1 mg/kg SQ or morphine 0.5 mg/kg SQ before anesthesia

CN1CC[C@]23c4c5ccc(O)c4O[C@H]2[C@@H](O)C=C[C@H]3[C@H]1C5 [Morphine, morphine]
isoflurane anesthesia required during ovary ligation and resection (vaporizer setting) (FIG. 2): 1.53±0.37%
isoflurane anesthesia required during skin closure (end of surgery, FIG. 4): 1.45±0.22%
